Laboratory results: EP0396251A2, “Use of fatty acids for the treatment of diseases associated with cytokines” (NATIONAL UNIVERSITY OF SINGAPORE, priority 1989, dated 1990)
For at least one compound, name, drawing or mass did not settle the structure.

System: uptake of ³[H]-uridine by the cells
Assay: Uptake of 3[H]-uridine by the cells
Assay type: cell-based

CC(=O)N1CCN(c2ccc(OC[C@H]3CO[C@](Cn4ccnc4)(c4ccc(Cl)cc4Cl)O3)cc2)CC1 (relative stereo) [Ketoconazole, cis-1-acetyl-4-{4-[2-(2,4-dichlorophenyl)-2-imidazol-1-ylmethyl-1,3-dioxolan-4-ylmethoxy]phenyl}-piperazine, reference compound]
inhibition of the uptake of ³[H]-uridine by the cells: partially inhibited
